{"source": "PubChem BioAssay AID504467", "about": "(National Center for Advancing Translational Sciences (NCATS), 2011)", "note": "Among all 330,000 compounds or so, about 7,700 (2.3%) were called active. Inconclusive means that the source gave no clear call. Such entries were picked first, then a sample of the others. Calls come from the whole dose curve; as a rule, active = well fitted inhibition curve with a large enough effect; inconclusive = small, poorly fitted or top-dose-only effect, or effect the other way; inactive = flat fitted curve, though single readings scatter. Potencies of inconclusive entries are doubtful fits and often do not repeat. Potency is the fitted concentration of half-maximal effect.", "data": [{"experiment": "qHTS screen for small molecules that inhibit ELG1-dependent DNA repair in human embryonic kidney (HEK293T) cells expressing luciferase-tagged ELG1; note: nearly all actives have a fitted effect of over 55% in size", "conditions": "HEK293T ELG1-luciferase reporter, luminescence, 16 h, DNA damage induced by 5-fluorouridine; series mostly up to 46.1 µM", "in_short": "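DMSO vehicle served as the neutral condition. Each well held 2,000 cells given 5-fluorouridine plus compound; after 16 hr at 37 °C/5% CO2, ONE-Glo was added and luciferase measured 30 min later.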", "values": [{"smiles": "CCNC(=S)N(Cc1cccs1)Cc1cc2cc(OCC)ccc2[nH]c1=O", "Potency": "inconclusive: 23.1 µM [inhibitor, partial curve]"}, {"smiles": "Cc1ccc(C(=O)NC(=S)Nc2ccccc2C(F)(F)F)c(C)c1", "Potency": "inactive"}, {"smiles": "CCn1c(=O)n(CC)c2cc(N3CCCC3)c(NC(=O)c3ccc(F)cc3)cc21", "Potency": "inconclusive: 16.4 µM [inhibitor, partial curve, poor fit]"}, {"smiles": "COc1ccc(C)cc1NC(=O)COC(C)=O", "Potency": "inconclusive: 25.9 µM [activator, single point]"}, {"smiles": "COc1cc(/C=C/C(=O)N2CCCc3ccccc32)cc(OC)c1OC", "Potency": "active: 8.2 µM"}, {"smiles": "CCC(C)(C)NC(=O)C1CCCN(S(=O)(=O)c2ccc3c(c2)CC(C)N3C(=O)C2CC2)C1", "note": "(stereo unspecified)", "Potency": "inactive"}, {"smiles": "Cc1cccc(N(C(=O)Nc2ccccc2)C2=NCC(C)S2)c1", "note": "(stereo unspecified)", "Potency": "inconclusive: 20.6 µM [activator, single point]"}, {"smiles": "Clc1ccc(Nc2nc(NCCN3CCOCC3)nc(N3CCOCC3)n2)cc1", "Potency": "inconclusive: 18.4 µM [inhibitor, single point]"}, {"smiles": "CC(C)(C)c1ccc(C(=O)Oc2ccccc2CCC(=O)O)cc1", "Potency": "inconclusive: 10.3 µM [activator, partial curve, poor fit]"}, {"smiles": "Cc1cccc(NC(=O)Cc2c(F)cccc2Cl)n1", "Potency": "inconclusive: 14.6 µM [activator, partial curve]"}, {"smiles": "Brc1ccc(-c2c(-c3ccsc3)sc3ccccc23)cn1", "Potency": "inconclusive: 1.3 µM [inhibitor, single point]"}, {"smiles": "CC(C)Cn1c(N)c(C(=O)COC(=O)CN2C(=O)C3CC=CCC3C2=O)c(=O)n(C)c1=O", "note": "(stereo unspecified)", "Potency": "inconclusive: 2.59 µM [inhibitor, full curve]"}, {"smiles": "Brc1cc2c(cc1CSc1ncccn1)OCO2", "Potency": "inconclusive: 29.1 µM [activator, single point]"}, {"smiles": "COc1ccc(NC(=O)C23CC4CC(CC(Cl)(C4)C2)C3)cc1S(=O)(=O)N1CCOCC1", "Potency": "active: 16.4 µM"}, {"smiles": "COc1ccccc1Oc1ccnc2cc(Cl)ccc12", "Potency": "inactive"}, {"smiles": "Cc1ccc2[nH]c3c(N4CCCCCC4)ncnc3c2c1", "Potency": "active: 10.3 µM"}, {"smiles": "O=C(CCn1cnc2ccccc2c1=O)Nc1cccc(Cl)c1Cl", "Potency": "inactive"}, {"smiles": "CCCCC(=O)N1CCN(c2nc3ccc(F)cc3s2)CC1", "Potency": "inconclusive: 1.46 µM [activator, partial curve]"}, {"smiles": "COC(=O)[C@]1(C)N[C@H](CN(C)C(=O)c2ccc(F)cc2)[C@@H]2C(=O)N(C)C(=O)[C@@H]21", "Potency": "inactive"}, {"smiles": "Cc1ccccc1NS(=O)(=O)c1cc(C(=O)NCc2ccncc2)ccc1Cl", "Potency": "inactive"}, {"smiles": "COc1ccc(S(=O)(=O)N2CCCC2CNC(=O)C(=O)NCCc2ccccc2)cc1", "note": "(stereo unspecified)", "Potency": "inconclusive: 9.2 µM [inhibitor, partial curve, poor fit]"}, {"smiles": "Fc1ccc(-c2cnc(-c3cccs3)o2)cc1", "Potency": "inconclusive: 14.6 µM [activator, partial curve]"}, {"smiles": "CC(NC(=O)c1ccco1)C(=O)OCc1cccc(C(F)(F)F)c1", "note": "(stereo unspecified)", "Potency": "inconclusive: 16.4 µM [activator, partial curve]"}, {"smiles": "COc1ccc2nc3oc(C(=O)N4CC(C)CC(C)C4)cc3cc2c1", "note": "(stereo unspecified)", "Potency": "inconclusive: 9.2 µM [activator, partial curve, poor fit]"}, {"smiles": "O=C(NCc1ccncc1)c1ccc(Br)cc1", "Potency": "inactive"}, {"smiles": "Cc1ccc(OCC(=O)N2N=C(c3ccc(Cl)cc3)CC2c2ccco2)c([N+](=O)[O-])n1", "note": "(stereo unspecified)", "Potency": "active: 20.6 µM"}, {"smiles": "COc1ccc(CCNC(=O)C2CCCN(S(C)(=O)=O)C2)cc1", "note": "(stereo unspecified)", "Potency": "inactive"}, {"smiles": "C=CCn1c(=S)[nH]c2sc3c(c2c1=O)CCCC3", "Potency": "inconclusive: 15.8 µM [activator, single point]"}, {"smiles": "CC(CNC(=O)CCC(=O)N1CCOc2ccc(Cl)cc21)c1ccccc1", "note": "(stereo unspecified)", "Potency": "inactive"}, {"smiles": "Cc1ccc(-n2c(C)nnc2SCC(=O)N2CCOCC2)cc1", "Potency": "inconclusive: 20.6 µM [activator, single point]"}, {"smiles": "CC(C)Oc1ccc(C(CC(=O)O)Cc2ccccc2)cc1", "note": "(stereo unspecified)", "Potency": "inactive"}, {"smiles": "CC(C)(C)CC(=O)NC(=S)NCc1ccccc1", "Potency": "inactive"}, {"smiles": "CC[C@]12c3[nH]c4cc(CCC(=O)N(C)C)ccc4c3CCN1C(=O)[C@@H](CC(=O)NCC13CC4CC(CC(C4)C1)C3)C[C@@H]2C(=O)N1CCN(C(=O)C2CC2)CC1", "Potency": "inconclusive: 14.6 µM [inhibitor, partial curve, poor fit]"}, {"smiles": "CCCCC1=CC2=CC(=O)C(C)(OC(=O)CC)C(=O)C2=CN1Cc1ccc(OC)cc1", "note": "(stereo unspecified)", "Potency": "inactive"}, {"smiles": "COc1cnn(-c2ccccc2)c(=O)c1SCc1ccc(Cl)cc1Cl", "Potency": "inactive"}, {"smiles": "Cc1ccc(-c2nc3ccccc3o2)cc1NC(=S)NC(=O)c1cccs1", "Potency": "inconclusive: 11.6 µM [activator, partial curve]"}, {"smiles": "Cc1ccc(C)n1-c1sc2c(c1C(=O)O)CCCC2", "Potency": "inconclusive: 2.31 µM [inhibitor, partial curve, poor fit]"}, {"smiles": "COc1ccc(-n2nc3cc(C)c(N)c(Br)c3n2)cc1", "Potency": "inconclusive: 2.91 µM [activator, full curve]"}, {"smiles": "O=C(NC1CCCCC1)C(c1ccco1)N(Cc1cccs1)C(=O)Cn1nnc2ccccc21", "note": "(stereo unspecified)", "Potency": "inconclusive: 2.59 µM [activator, partial curve]"}, {"smiles": "O=C(NC(=S)NCCc1ccccc1)c1ccco1", "Potency": "inconclusive: 20.6 µM [activator, partial curve, poor fit]"}, {"smiles": "Fc1ccc(C(CCNCc2ccccn2)c2ccc(Cl)cc2)cc1", "note": "(stereo unspecified)", "Potency": "inactive"}, {"smiles": "Cc1ccc(NS(=O)(=O)c2cccc(C(=O)N/N=C/c3c(C)nn(-c4ccccc4)c3N3CCCC3)c2)c(C)c1", "Potency": "inconclusive: 18.4 µM [inhibitor, partial curve, poor fit]"}, {"smiles": "O=C(O)C1CCc2sc3[nH]c(=S)n(-c4ccccc4)c(=O)c3c21", "note": "(stereo unspecified)", "Potency": "inactive"}, {"smiles": "COc1ccccc1C(CNC(=O)c1ccco1)N1CCCC1", "note": "(stereo unspecified)", "Potency": "inconclusive: 25.1 µM [activator, single point]"}, {"smiles": "CCOC(=O)c1c(NC(=O)CN(C)C2CCN(C)CC2)sc(C(=O)Nc2ccccc2)c1C", "Potency": "inconclusive: 23.1 µM [activator, partial curve]"}, {"smiles": "CN1CCc2c(OCC(=O)N3CCCc4ccccc43)cccc2C1=O", "Potency": "inactive"}, {"smiles": "Cc1ccc(SC(C)C(=O)Nc2ccncc2)cc1", "note": "(stereo unspecified)", "Potency": "inconclusive: 10.3 µM [inhibitor, partial curve]"}, {"smiles": "C[C@@H]1CC=C[C@H]2[C@H]1C(=O)N(Cc1ccccc1)[C@H]2c1ccc(C(F)(F)F)cc1", "Potency": "inactive"}, {"smiles": "O=C(CSc1nnc(CNC(=O)c2ccco2)o1)Nc1cccc(Cl)c1", "Potency": "inactive"}, {"smiles": "Cc1ccc(NCCC(=O)c2ccccc2)cc1Cl", "Potency": "inconclusive: 14.6 µM [activator, partial curve]"}, {"smiles": "Cc1c(NC(=O)CCc2ccccc2)cccc1[N+](=O)[O-]", "Potency": "inconclusive: 3.66 µM [activator, single point]"}, {"smiles": "Cc1oc(-c2ccc3c(c2)OCCO3)cc1C(=O)O", "Potency": "active: 1.64 µM"}, {"smiles": "COc1cccc(/C=N\\NC(=O)C2C(=O)NCC2c2ccccc2)c1O", "note": "(stereo unspecified)", "Potency": "inconclusive: 25.9 µM [inhibitor, partial curve, poor fit]"}, {"smiles": "COC(=O)C1=C(N)Oc2cc(C)n(CC3CCCO3)c(=O)c2C1c1ccccc1OC", "note": "(stereo unspecified)", "Potency": "inactive"}, {"smiles": "O=C1CNC(=O)/C1=C/c1ccc(Br)cc1", "Potency": "inactive"}, {"smiles": "Cc1ccc(C2CC(=O)N3CN(c4ccc(Br)cc4)CSC3=C2C#N)o1", "note": "(stereo unspecified)", "Potency": "inactive"}, {"smiles": "CCC(Sc1nc2ccc(N)cc2s1)C(=O)Nc1nccs1", "note": "(stereo unspecified)", "Potency": "inconclusive: 20.6 µM [inhibitor, partial curve, poor fit]"}, {"smiles": "COc1cc(NC(=O)c2cccs2)ccc1NC(=O)c1ccccc1Cl", "Potency": "inconclusive: 29.1 µM [inhibitor, single point]"}, {"smiles": "COc1ccc(CCNC(=S)c2ccccc2)cc1OC", "Potency": "inconclusive: 6.51 µM [inhibitor, full curve]"}, {"smiles": "Brc1ccccc1C1CC(c2ccccc2)=Nc2ccccc2N1", "note": "(stereo unspecified)", "Potency": "inconclusive: 23.1 µM [activator, partial curve]"}, {"smiles": "c1ccc(-n2ncc3c(NCc4cccs4)ncnc32)cc1", "Potency": "inconclusive: 2.31 µM [activator, full curve]"}, {"smiles": "O=C(N/N=C/c1ccccc1OCC(=O)N1CCCC1)C(=O)Nc1ccccc1F", "Potency": "inconclusive: 20.6 µM [activator, single point]"}, {"smiles": "COc1ccc2c(Cl)c(-c3nnc(SCC(=O)c4ccccc4)n3C)sc2c1", "Potency": "inconclusive: 32.6 µM [inhibitor, single point]"}, {"smiles": "COC(=O)CCCCCC(CCC(=O)OC)NC(C)=O", "note": "(stereo unspecified)", "Potency": "inconclusive: 29.1 µM [inhibitor, single point]"}, {"smiles": "COc1cc(NC(=O)COC(=O)CO/N=C(\\C)c2ccc3c(c2)OCO3)cc(OC)c1OC", "Potency": "inconclusive: 29.1 µM [activator, single point]"}, {"smiles": "O=C(CN1CCN(S(=O)(=O)c2ccc(Cl)cc2)CC1)NC1CC1", "Potency": "inactive"}, {"smiles": "CCOC(=O)C1=C(C)NC(=S)N(C(C)=O)C1c1ccc(Cl)cc1", "note": "(stereo unspecified)", "Potency": "inconclusive: 29.1 µM [inhibitor, single point]"}, {"smiles": "Cc1cc(NC(=O)c2sccc2C)n(-c2cccc(Cl)c2)n1", "Potency": "inconclusive: 29.1 µM [activator, single point]"}, {"smiles": "O=C(NCc1ccccc1)NCc1cccs1", "Potency": "inconclusive: 23.1 µM [activator, single point]"}, {"smiles": "NC(=O)CSc1nnc(-c2cccs2)n1Cc1ccco1", "Potency": "inconclusive: 16.4 µM [activator, partial curve, poor fit]"}, {"smiles": "O=C1CC(c2ccccc2)Cc2nc(NCc3ccco3)ncc21", "note": "(stereo unspecified)", "Potency": "inconclusive: 16.4 µM [inhibitor, single point]"}]}]}
